For 35 targets, NP40-soluble protein abundance results are on record in the supplement of paper PMC6411743.

The chains behind the UniProt entries cited, without tags or fusion partners. Where a name states a change or a piece, a line headed by the entry shows the natural chain unless it says otherwise.
UniProt P01848, whole entry, looked up: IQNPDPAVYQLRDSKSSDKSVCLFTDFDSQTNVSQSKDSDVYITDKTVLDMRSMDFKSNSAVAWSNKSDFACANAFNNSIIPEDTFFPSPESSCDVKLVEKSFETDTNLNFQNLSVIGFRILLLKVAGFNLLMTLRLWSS
UniProt Q13617, whole entry: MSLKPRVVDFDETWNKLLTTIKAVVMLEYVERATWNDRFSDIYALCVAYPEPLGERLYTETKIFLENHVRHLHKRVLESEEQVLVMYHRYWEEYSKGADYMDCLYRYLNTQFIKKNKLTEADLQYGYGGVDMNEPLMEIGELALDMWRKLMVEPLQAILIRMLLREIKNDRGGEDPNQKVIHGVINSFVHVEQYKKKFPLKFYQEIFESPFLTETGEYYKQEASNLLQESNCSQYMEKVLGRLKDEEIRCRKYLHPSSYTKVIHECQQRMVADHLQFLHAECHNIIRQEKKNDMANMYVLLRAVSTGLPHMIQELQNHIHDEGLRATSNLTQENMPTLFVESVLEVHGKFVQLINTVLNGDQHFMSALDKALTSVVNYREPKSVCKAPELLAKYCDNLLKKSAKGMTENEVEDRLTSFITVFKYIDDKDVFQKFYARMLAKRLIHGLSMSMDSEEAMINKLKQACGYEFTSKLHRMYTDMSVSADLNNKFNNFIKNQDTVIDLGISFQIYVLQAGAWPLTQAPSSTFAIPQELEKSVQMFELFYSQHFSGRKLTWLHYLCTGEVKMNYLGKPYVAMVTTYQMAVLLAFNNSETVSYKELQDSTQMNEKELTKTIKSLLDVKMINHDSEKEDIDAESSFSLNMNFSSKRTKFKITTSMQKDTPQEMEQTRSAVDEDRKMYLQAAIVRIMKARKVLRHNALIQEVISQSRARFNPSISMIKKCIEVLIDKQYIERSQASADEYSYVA
UniProt P56556, whole entry: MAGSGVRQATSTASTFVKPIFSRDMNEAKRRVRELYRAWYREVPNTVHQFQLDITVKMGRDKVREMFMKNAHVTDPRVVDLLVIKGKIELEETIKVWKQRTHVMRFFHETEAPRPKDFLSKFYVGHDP
UniProt O15484: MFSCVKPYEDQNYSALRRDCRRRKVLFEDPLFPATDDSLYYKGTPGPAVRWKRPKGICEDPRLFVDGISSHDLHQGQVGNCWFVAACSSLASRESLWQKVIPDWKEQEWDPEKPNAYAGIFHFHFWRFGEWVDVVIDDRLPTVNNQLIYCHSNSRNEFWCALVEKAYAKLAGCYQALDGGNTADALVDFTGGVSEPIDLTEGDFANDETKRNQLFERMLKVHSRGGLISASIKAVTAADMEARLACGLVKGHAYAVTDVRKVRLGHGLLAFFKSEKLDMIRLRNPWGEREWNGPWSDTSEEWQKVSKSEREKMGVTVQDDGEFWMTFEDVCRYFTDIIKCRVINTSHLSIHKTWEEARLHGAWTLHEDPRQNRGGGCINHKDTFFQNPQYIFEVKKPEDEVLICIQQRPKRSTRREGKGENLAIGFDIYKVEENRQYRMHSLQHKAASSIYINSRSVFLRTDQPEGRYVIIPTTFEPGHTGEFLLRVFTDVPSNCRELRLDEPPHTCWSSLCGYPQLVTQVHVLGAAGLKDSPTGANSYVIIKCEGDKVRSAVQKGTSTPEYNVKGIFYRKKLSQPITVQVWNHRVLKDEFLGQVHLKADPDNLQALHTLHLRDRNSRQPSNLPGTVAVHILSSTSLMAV
UniProt Q99996, whole entry: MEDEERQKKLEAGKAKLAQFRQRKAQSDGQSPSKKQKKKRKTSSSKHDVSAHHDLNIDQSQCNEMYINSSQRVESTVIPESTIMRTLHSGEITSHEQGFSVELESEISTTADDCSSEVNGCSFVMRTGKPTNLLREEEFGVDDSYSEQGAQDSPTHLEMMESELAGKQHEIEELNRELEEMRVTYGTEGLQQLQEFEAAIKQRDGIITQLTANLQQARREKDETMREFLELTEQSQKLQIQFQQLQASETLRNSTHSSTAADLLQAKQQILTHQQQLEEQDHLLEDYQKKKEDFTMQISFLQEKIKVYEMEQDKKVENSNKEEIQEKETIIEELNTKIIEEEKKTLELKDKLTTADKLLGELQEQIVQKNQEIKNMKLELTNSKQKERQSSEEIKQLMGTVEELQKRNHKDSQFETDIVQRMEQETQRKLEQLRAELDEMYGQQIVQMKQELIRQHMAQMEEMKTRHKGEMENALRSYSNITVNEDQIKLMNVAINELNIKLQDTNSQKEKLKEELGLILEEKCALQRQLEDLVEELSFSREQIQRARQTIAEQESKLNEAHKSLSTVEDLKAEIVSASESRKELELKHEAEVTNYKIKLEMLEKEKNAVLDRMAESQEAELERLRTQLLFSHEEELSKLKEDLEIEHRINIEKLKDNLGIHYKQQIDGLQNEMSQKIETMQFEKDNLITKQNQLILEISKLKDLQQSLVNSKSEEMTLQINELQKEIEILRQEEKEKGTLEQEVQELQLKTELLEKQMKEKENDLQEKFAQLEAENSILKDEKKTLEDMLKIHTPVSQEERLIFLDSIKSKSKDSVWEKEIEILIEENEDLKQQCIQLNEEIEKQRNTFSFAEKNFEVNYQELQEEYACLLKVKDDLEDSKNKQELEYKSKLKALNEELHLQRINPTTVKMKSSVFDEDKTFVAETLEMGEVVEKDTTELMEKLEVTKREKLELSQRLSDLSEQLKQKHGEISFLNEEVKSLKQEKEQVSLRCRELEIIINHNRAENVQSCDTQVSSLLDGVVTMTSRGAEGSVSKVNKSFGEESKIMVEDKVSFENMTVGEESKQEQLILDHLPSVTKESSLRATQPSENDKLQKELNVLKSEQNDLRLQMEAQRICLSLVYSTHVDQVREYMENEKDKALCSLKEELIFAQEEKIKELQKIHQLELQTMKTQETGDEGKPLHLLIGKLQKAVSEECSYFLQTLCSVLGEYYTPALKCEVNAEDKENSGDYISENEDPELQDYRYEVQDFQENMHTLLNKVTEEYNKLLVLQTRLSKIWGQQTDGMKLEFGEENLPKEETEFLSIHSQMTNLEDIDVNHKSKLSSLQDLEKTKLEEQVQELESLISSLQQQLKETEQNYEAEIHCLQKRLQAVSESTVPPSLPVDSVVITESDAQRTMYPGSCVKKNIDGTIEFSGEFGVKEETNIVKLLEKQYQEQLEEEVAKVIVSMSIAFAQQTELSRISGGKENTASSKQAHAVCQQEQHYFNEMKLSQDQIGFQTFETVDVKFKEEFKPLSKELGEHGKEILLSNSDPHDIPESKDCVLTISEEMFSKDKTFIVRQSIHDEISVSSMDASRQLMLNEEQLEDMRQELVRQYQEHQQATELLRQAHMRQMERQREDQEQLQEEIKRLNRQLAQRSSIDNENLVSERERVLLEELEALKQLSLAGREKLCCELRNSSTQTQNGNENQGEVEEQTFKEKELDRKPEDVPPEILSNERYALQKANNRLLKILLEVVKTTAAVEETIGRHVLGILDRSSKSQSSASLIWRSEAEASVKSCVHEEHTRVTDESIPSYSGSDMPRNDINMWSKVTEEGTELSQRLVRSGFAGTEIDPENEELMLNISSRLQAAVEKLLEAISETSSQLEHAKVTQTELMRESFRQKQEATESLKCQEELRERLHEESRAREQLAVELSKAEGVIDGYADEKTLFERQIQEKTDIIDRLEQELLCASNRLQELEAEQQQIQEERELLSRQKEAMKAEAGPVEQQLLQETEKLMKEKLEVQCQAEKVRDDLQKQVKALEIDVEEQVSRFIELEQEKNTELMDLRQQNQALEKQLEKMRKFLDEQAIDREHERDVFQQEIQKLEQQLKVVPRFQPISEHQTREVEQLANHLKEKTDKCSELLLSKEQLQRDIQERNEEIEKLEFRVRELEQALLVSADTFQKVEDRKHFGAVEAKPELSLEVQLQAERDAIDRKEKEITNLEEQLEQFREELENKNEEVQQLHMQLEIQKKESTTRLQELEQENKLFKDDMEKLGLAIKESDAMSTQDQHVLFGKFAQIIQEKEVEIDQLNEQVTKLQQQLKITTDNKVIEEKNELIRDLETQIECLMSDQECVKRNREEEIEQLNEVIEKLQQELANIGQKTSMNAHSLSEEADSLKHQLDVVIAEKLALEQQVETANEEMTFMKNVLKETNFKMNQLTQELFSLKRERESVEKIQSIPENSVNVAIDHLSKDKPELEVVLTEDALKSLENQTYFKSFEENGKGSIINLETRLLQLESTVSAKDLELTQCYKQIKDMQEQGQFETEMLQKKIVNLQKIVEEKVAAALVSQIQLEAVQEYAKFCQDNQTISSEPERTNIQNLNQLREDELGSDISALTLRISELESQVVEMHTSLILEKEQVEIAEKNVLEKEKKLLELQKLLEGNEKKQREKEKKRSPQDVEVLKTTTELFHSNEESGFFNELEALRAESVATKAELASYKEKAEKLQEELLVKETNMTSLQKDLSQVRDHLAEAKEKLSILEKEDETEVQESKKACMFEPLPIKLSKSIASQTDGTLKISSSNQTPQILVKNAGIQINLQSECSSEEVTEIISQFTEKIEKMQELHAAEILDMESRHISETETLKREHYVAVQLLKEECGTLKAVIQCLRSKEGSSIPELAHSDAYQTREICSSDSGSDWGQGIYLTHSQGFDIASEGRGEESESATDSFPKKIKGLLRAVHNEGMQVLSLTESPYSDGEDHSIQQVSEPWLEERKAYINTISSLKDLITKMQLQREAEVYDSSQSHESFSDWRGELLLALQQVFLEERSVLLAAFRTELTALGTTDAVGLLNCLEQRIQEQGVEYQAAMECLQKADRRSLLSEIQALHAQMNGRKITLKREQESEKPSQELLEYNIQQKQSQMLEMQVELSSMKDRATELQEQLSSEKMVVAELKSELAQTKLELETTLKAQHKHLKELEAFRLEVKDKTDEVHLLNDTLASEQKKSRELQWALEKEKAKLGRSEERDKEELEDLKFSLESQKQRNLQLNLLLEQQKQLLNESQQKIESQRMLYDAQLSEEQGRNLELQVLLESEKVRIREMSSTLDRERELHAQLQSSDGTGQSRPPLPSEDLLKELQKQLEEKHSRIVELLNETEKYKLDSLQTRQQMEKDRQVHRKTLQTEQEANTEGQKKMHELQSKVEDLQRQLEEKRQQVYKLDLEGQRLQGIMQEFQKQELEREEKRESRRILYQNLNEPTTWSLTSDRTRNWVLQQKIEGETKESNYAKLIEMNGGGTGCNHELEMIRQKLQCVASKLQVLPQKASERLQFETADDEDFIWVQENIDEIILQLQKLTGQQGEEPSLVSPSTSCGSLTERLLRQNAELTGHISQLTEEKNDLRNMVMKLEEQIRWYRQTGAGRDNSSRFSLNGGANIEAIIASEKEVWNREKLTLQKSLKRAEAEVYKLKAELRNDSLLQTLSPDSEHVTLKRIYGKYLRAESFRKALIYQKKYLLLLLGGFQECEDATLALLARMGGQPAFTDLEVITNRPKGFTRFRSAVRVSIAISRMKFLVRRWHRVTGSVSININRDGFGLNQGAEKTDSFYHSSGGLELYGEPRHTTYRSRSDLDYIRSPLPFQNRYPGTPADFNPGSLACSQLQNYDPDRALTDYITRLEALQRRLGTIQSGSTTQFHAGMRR
UniProt P04179: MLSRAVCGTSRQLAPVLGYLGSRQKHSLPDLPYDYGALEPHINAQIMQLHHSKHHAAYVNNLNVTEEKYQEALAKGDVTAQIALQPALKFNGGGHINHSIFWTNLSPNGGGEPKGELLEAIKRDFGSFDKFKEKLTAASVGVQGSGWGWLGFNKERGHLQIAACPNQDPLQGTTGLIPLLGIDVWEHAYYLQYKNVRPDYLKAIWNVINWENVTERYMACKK
UniProt Q96AP0: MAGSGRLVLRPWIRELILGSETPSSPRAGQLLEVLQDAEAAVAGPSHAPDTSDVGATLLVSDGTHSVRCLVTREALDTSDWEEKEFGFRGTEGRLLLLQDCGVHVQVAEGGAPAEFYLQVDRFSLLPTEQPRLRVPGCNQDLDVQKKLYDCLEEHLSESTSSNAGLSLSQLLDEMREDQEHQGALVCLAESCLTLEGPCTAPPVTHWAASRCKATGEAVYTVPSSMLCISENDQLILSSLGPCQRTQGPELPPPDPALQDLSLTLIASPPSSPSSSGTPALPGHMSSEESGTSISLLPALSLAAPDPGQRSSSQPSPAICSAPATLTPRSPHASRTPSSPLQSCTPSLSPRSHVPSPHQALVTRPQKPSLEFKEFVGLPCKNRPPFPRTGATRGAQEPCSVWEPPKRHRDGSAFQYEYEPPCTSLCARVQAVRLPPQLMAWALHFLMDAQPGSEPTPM
UniProt Q8IXQ4: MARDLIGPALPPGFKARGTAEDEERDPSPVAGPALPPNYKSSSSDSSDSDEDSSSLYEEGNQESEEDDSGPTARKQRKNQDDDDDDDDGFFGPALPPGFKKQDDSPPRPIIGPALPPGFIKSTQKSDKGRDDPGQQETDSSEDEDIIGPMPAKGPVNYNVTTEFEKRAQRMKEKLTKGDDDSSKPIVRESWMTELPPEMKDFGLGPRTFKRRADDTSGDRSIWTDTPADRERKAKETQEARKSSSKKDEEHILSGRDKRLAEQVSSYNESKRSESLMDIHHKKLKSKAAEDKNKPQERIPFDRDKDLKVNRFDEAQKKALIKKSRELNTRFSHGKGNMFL

± gives the standard deviation of the averaged measurements. The entries are a selection whose mix differs from that of the whole data set.

Compound in the first test: Nc1ncnc2c1ncn2[C@@H]1O[C@H](COP(=O)(O)OP(=O)(O)NP(=O)(O)O)[C@@H](O)[C@H]1O [adenylyl imidodiphosphate]
Description: NP40-soluble protein abundance relative to vehicle (solubility fold change) (ratio); higher = more soluble protein in presence of AMP-PNP. To be noted: concentration: 4mM. Put shortly: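 Values are fold changes against the detergent-processed vehicle, based on vsn-normalised intensities. Jurkat crude lysate was treated at eight concentrations from 0.1 to 10 mM (10 min at room temperature, then 3 min at 37 °C), solubilised with 0.8% NP40 and benzonase, ultracentrifuged and analysed by TMT-labelled LC-MS/MS over three independent experiments.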
For “A0A087WWC6|P01848 and related entries (UniProt Q6P4I7+P01848)”, the NP40-soluble protein abundance was determined as 0.976 ± 0.039. Still for that read-out and setting: under “A0A087WXF8|A0A087WXU5|A0A087WYF0|A0A0D9SEW3|E7EPF0 and related entries (UniProt Q9NP64)” stands 0.991 ± 0.065; under A0A140T9T7|Q03518 (UniProt Q03518), 1.002 ± 0.0072. Same read-out and setting: the value for “A0A0A0MTN0|Q13617 and related entries (UniProt Q13617)” was 0.9136 ± 0.0062; that for A0A0A0MQY7|Q5VU97 (UniProt Q5VU97) was 0.981 ± 0.013; that for “A0A0A0MRJ6|C9J0F2 and related entries (UniProt P22061)” was 0.965 ± 0.063.

Turning to “A0A0C4DGS0|P56556 and related entries (UniProt P56556)”, the NP40-soluble protein abundance was found to be 0.952 ± 0.047. Same read-out and setting: the value for “A0A087X0C8|O15484 and related entries (UniProt O15484)” was 1 ± 0.037. The same measure, in the same setting: under A0A087X0M4|Q9BWU0 (UniProt Q9BWU0) stands 1.01 ± 0.017; under “A0A0A0MRF6|Q99996 and related entries (UniProt Q99996)”, 1.04 ± 0.071. Same read-out and setting: under “A0A0C4DFU2|P04179 and related entries (UniProt P04179)” stands 0.946 ± 0.063; under “A0A0A0MSM3|P46939 and related entries (UniProt P46939)”, 1 ± 0.018; under “A0A0C4DGT6|Q96AP0 and related entries (UniProt Q96AP0)”, 1.06 ± 0.047.

“A0A140T9R1|A2ABJ5 and related entries (UniProt O75955)”: the NP40-soluble protein abundance came out at 1.06 ± 0.072.

With “A0A0C4DG21|E7EP65 and related entries (UniProt Q9NYB9)”, the NP40-soluble protein abundance turned out to be 0.966 ± 0.037. Turning to “A0A087X0R0|F5H6S1 and related entries (UniProt O15550)”, the NP40-soluble protein abundance stood at 1.02 ± 0.047. Same read-out and setting: under A0A0C4DGZ1|Q8N5P1 (UniProt Q8N5P1) stands 1.07 ± 0.075; under A0A0A0MRI1|Q8IXQ4 (UniProt Q8IXQ4), 1.08 ± 0.055; under A0A0G2JNW7|Q9Y666 (UniProt Q9Y666), 1.02 ± 0.029.

The same test, now with this note: concentration: 6mM.
For the target “A0A087WWH3|Q9NZM4 and related entries (UniProt Q9NZM4)”, the NP40-soluble protein abundance was 1.009 ± 0.0024.

On to “A0A0C4DFN8|P22570 and related entries (UniProt P22570)”, for which the NP40-soluble protein abundance turned out to be 0.988 ± 0.015.

With “A0A0C4DGA2|O75521 and related entries (UniProt O75521)”, the NP40-soluble protein abundance was 1.07 ± 0.024. The same measure, in the same setting: under “A0A087X1K9|O75608 and related entries (UniProt O75608)” stands 0.995 ± 0.035; under “A0A0G2JLB3|A0A0G2JNZ0|A0A0G2JNZ5|P04062 and related entries (UniProt P04062)”, 0.999 ± 0.027; under A0A0D9SG71|P49459 (UniProt P49459), 1.01 ± 0.027. Still for that read-out and setting: under A0A087X188|Q9UBW5 (UniProt Q9UBW5) stands 1.04 ± 0.012; under A0A0C4DFZ2|P15289 (UniProt P15289), 1.06 ± 0.023. Same read-out and setting: the value for SH3PXD2B (UniProt A1X283) was 0.988 ± 0.031; that for “A0A0A6YYJ5|E9PLY5 and related entries (UniProt Q9UPN3+H3BQK9+H3BPE1+E9PLY5)” was 0.979 ± 0.021. For the target A0A0C4DGV9|P49917 (UniProt P49917), the NP40-soluble protein abundance came out at 1.04 ± 0.078.

As to A0A087WY96|P31641 (UniProt P31641), the NP40-soluble protein abundance came to 1 ± 0.021. On the same count and under the same terms, under “A0A0C4DGW2|P57768 and related entries (UniProt P57768)” stands 1 ± 0.02; under A0A087X0Q9|Q9BVL4 (UniProt Q9BVL4), 0.986 ± 0.017; under “A0A087WYL5|Q6UXD5-3|Q6UXD5-5|Q6UXD5-6|Q6UXD5 and related entries (UniProt Q6UXD5)”, 0.984 ± 0.012. Still for that read-out and setting: the value for “A0A0A0MRY0|Q8WUA7 and related entries (UniProt Q8WUA7)” was 1.01 ± 0.021; that for “A0A087WWC6|P01848 and related entries (UniProt Q6P4I7+P01848)” was 1.01 ± 0.021. The same measure, in the same setting: the value for “A0A087WXF8|A0A087WXU5|A0A087WYF0|A0A0D9SEW3|E7EPF0 and related entries (UniProt Q9NP64)” was 1.05 ± 0.058; that for A0A140T9T7|Q03518 (UniProt Q03518) was 0.973 ± 0.019. As for “A0A0A0MTN0|Q13617 and related entries (UniProt Q13617)”, the NP40-soluble protein abundance was 0.935 ± 0.015. Take A0A0A0MQY7|Q5VU97 (UniProt Q5VU97): the NP40-soluble protein abundance was 0.9848 ± 0.0053.

In the case of “A0A0A0MRJ6|C9J0F2 and related entries (UniProt P22061)”, the NP40-soluble protein abundance worked out at 0.98 ± 0.046. Same read-out and setting: under “A0A0C4DGS0|P56556 and related entries (UniProt P56556)” stands 0.996 ± 0.022; under “A0A087X0C8|O15484 and related entries (UniProt O15484)”, 1.02 ± 0.019; under A0A087X0M4|Q9BWU0 (UniProt Q9BWU0), 1.02 ± 0.043. Still for that read-out and setting: under “A0A0A0MRF6|Q99996 and related entries (UniProt Q99996)” stands 0.982 ± 0.062; under “A0A0C4DFU2|P04179 and related entries (UniProt P04179)”, 1.09 ± 0.12.

Regarding “A0A0A0MSM3|P46939 and related entries (UniProt P46939)”, the NP40-soluble protein abundance is 0.978 ± 0.025. Still for that read-out and setting: the value for “A0A0C4DGT6|Q96AP0 and related entries (UniProt Q96AP0)” was 1.02 ± 0.012; that for “A0A140T9R1|A2ABJ5 and related entries (UniProt O75955)” was 0.969 ± 0.065. For “A0A0C4DG21|E7EP65 and related entries (UniProt Q9NYB9)”, the NP40-soluble protein abundance amounted to 0.968 ± 0.028. On the same count and under the same terms, the value for “A0A087X0R0|F5H6S1 and related entries (UniProt O15550)” was 1.03 ± 0.032. On to A0A0C4DGZ1|Q8N5P1 (UniProt Q8N5P1), for which the NP40-soluble protein abundance was found to be 1.14 ± 0.049. Still for that read-out and setting: the value for A0A0A0MRI1|Q8IXQ4 (UniProt Q8IXQ4) was 1.07 ± 0.02.

With A0A0G2JNW7|Q9Y666 (UniProt Q9Y666), the NP40-soluble protein abundance was 1.03 ± 0.016.
